PubChem BioAssay AID1224830 – NIAID, 2016

- Purpose: 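Regulators of TLR4 signalling towards TNF-alpha in macrophage-like cells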 (primary screen)
- Cells: human THP-1 monocytic leukaemia cells, TNF dual-luciferase reporter clone, PMA-differentiated to macrophage-like cells
- Knock-down reagent: siRNA pool against human genes, 50 nM
- Time to read-out: LPS for 4 h, given about 3 days after siRNA transfection
- Conditions: bacterial LPS (TLR4 ligand), 10 ng/ml
- Measurement: 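TNF firefly reporter luminescence divided by renilla, normalised to the plate median, then turned into a robust z-score for each replicate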
- Direction: TNF reporter robust z-score: higher = stronger TNF reporter response to LPS
- Call rule: 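a well is active when its z-score exceeds 2.8 or falls below -1.5; control wells carry no call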
In all, the deposit lists about 18,000 reagents; this is an unselected part. Over the whole deposit, about 2,900 (16%) were called active. 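Calls are made per well; low scores hint the gene aids the LPS response, high scores that it dampens it.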 Entries without a mark were called inactive. Repeated entries: four replicate wells of each siRNA pool.

no.	target gene	TNF reporter robust z-score
1	FCER1G (Fc epsilon receptor Ig)	-0.66
2	FCER1G (Fc epsilon receptor Ig)	0.79
3	FCER1G (Fc epsilon receptor Ig)	-0.33
4	FCER1G (Fc epsilon receptor Ig)	0.75
5	TMSB4X (thymosin beta 4 X-linked)	0.22
6	TMSB4X (thymosin beta 4 X-linked)	-0.42
7	TMSB4X (thymosin beta 4 X-linked)	-0.05
8	TMSB4X (thymosin beta 4 X-linked)	-2 (active)
9	SSX4B (SSX family member 4B)	-0.44
10	SSX4B (SSX family member 4B)	1.28
11	SSX4B (SSX family member 4B)	0.83
12	SSX4B (SSX family member 4B)	1.06
13	CD28 (CD28 molecule)	-1.81 (active)
14	CD28 (CD28 molecule)	-0.97
15	CD28 (CD28 molecule)	-0.94
16	CD28 (CD28 molecule)	1.87
17	ZNF383 (zinc finger protein 383)	-0.89
18	ZNF383 (zinc finger protein 383)	-0.69
19	ZNF383 (zinc finger protein 383)	-0.65
20	ZNF383 (zinc finger protein 383)	-0.23
21	TLR3 (toll like receptor 3)	-0.2
22	TLR3 (toll like receptor 3)	1.45
23	TLR3 (toll like receptor 3)	-0.52
24	TLR3 (toll like receptor 3)	2.06
25	ITFG2 (integrin alpha FG-GAP repeat containing 2)	1.4
26	ITFG2 (integrin alpha FG-GAP repeat containing 2)	-0.08
27	ITFG2 (integrin alpha FG-GAP repeat containing 2)	-0.43
28	ITFG2 (integrin alpha FG-GAP repeat containing 2)	-0.58
29	H3C7 (H3 clustered histone 7)	-0.88
30	H3C7 (H3 clustered histone 7)	-0.6
31	H3C7 (H3 clustered histone 7)	-1.05
32	H3C7 (H3 clustered histone 7)	-1.25
33	NOS2 (nitric oxide synthase 2)	-0.2
34	NOS2 (nitric oxide synthase 2)	-0.01
35	NOS2 (nitric oxide synthase 2)	0.06
36	NOS2 (nitric oxide synthase 2)	1.63
37	PHACTR3 (phosphatase and actin regulator 3)	-0.21
38	PHACTR3 (phosphatase and actin regulator 3)	-0.55
39	PHACTR3 (phosphatase and actin regulator 3)	-1.18
40	C11orf42 (chromosome 11 open reading frame 42)	0.9
41	C11orf42 (chromosome 11 open reading frame 42)	0.03
42	C11orf42 (chromosome 11 open reading frame 42)	1.67
43	C11orf42 (chromosome 11 open reading frame 42)	-0.69
44	SLC16A6	-0.81
45	SLC16A6	0
46	SLC16A6	-0.2
47	SLC16A6	-0.01
48	PCDHB8 (protocadherin beta 8)	-1.25
49	PCDHB8 (protocadherin beta 8)	-0.74
50	PCDHB8 (protocadherin beta 8)	-0.8
51	PCDHB8 (protocadherin beta 8)	-0.96
52	SLC40A1	1.05
53	SLC40A1	1.4
54	SLC40A1	-0.58
55	SLC40A1	2.74
56	GYPE (glycophorin E (MNS blood group))	1.31
57	GYPE (glycophorin E (MNS blood group))	-0.55
58	GYPE (glycophorin E (MNS blood group))	0.2
59	GYPE (glycophorin E (MNS blood group))	0.61
60	SCD5 (stearoyl-CoA desaturase 5)	2.78
61	SCD5 (stearoyl-CoA desaturase 5)	0.53
62	SCD5 (stearoyl-CoA desaturase 5)	-0.84
63	SCD5 (stearoyl-CoA desaturase 5)	-1.18
64	OR51V1 (olfactory receptor family 51 subfamily V member 1)	-0.74
65	OR51V1 (olfactory receptor family 51 subfamily V member 1)	-0.8
66	OR51V1 (olfactory receptor family 51 subfamily V member 1)	-0.45
67	ZBTB7C (zinc finger and BTB domain containing 7C)	0.49
68	ZBTB7C (zinc finger and BTB domain containing 7C)	1.81
69	ZBTB7C (zinc finger and BTB domain containing 7C)	3.15 (active)
70	ZBTB7C (zinc finger and BTB domain containing 7C)	1.04
71	TWNK (twinkle mtDNA helicase)	0.23
72	TWNK (twinkle mtDNA helicase)	-0.13
73	TWNK (twinkle mtDNA helicase)	-0.68
74	TWNK (twinkle mtDNA helicase)	-0.14
75	CA1 (carbonic anhydrase 1)	0.51
76	CA1 (carbonic anhydrase 1)	0.62
77	CA1 (carbonic anhydrase 1)	0.71
78	CA1 (carbonic anhydrase 1)	1.39
79	MCF2L (MCF.2 cell line derived transforming sequence like)	-0.71
80	MCF2L (MCF.2 cell line derived transforming sequence like)	0.23
81	MCF2L (MCF.2 cell line derived transforming sequence like)	-0.66
82	MCF2L (MCF.2 cell line derived transforming sequence like)	0.03
83	IGSF3 (immunoglobulin superfamily member 3)	-0.59
84	IGSF3 (immunoglobulin superfamily member 3)	-0.18
85	IGSF3 (immunoglobulin superfamily member 3)	-0.62
86	IGSF3 (immunoglobulin superfamily member 3)	-0.37
87	PATZ1 (POZ/BTB and AT hook containing zinc finger 1)	-0.21
88	PATZ1 (POZ/BTB and AT hook containing zinc finger 1)	1.04
89	PATZ1 (POZ/BTB and AT hook containing zinc finger 1)	-0.7
90	PATZ1 (POZ/BTB and AT hook containing zinc finger 1)	-1.27
91	TBXA2R (thromboxane A2 receptor)	-1.29
92	TBXA2R (thromboxane A2 receptor)	-0.19
93	TBXA2R (thromboxane A2 receptor)	-0.04
94	TBXA2R (thromboxane A2 receptor)	-0.45
95	TUBA3D (tubulin alpha 3d)	7.38 (active)
96	TUBA3D (tubulin alpha 3d)	1.37
97	TUBA3D (tubulin alpha 3d)	-0.06
98	TUBA3D (tubulin alpha 3d)	1.04
99	KRT7 (keratin 7)	1.83
100	KRT7 (keratin 7)	1.67
101	KRT7 (keratin 7)	1.86
102	KRT7 (keratin 7)	1.38
103	KRT38 (keratin 38)	-1.03
104	KRT38 (keratin 38)	-0.13
105	KRT38 (keratin 38)	-0.28
106	KRT38 (keratin 38)	-0.48
107	TRIP12 (thyroid hormone receptor interactor 12)	0.68
108	TRIP12 (thyroid hormone receptor interactor 12)	0.37
109	TRIP12 (thyroid hormone receptor interactor 12)	-0.5
110	TRIP12 (thyroid hormone receptor interactor 12)	0.33

Part of the list above, reformatted:
target gene,TNF reporter robust z-score
TMSB4X (thymosin beta 4 X-linked),-0.05
TMSB4X (thymosin beta 4 X-linked),-2 (active)
SSX4B (SSX family member 4B),-0.44
SSX4B (SSX family member 4B),1.28
SSX4B (SSX family member 4B),0.83
SSX4B (SSX family member 4B),1.06
CD28 (CD28 molecule),-1.81 (active)
CD28 (CD28 molecule),-0.97
CD28 (CD28 molecule),-0.94
CD28 (CD28 molecule),1.87
ZNF383 (zinc finger protein 383),-0.89
